# Laboratory results published in PMC12431657, “Discovery and mechanistic insights of dibenzoylmethane as a broad spectrum inhibitor of coronavirus” (PLOS Pathogens, 2025).
# Counter-ions that a name gives are not always drawn. Like-named read-outs stand apart in the source and are kept apart here. Hit rate of the full screen: of about 3,300 compounds, about 60 (2%) showed an effect of 50% or more. The list shows a part of the results.
# System: HCoV-OC43
# Parameters: species or system RD; HTS, protection from HCoV-OC43 induced cell death, luminescent cell viability (CellCounting-Lite 2.0), inhibition rate
smiles,measurement,setting,value
C=C1C(=O)O[C@@H]2[C@H]3C(C)=CC[C@@]34O[C@@]4(C)CC[C@@H]12 [Arglabin],OC43 Inhibition rate,"24 h, 10 µM; inhibitor",16.5
Cc1cccc(C=O)c1 [m-Tolualdehyde],OC43 Inhibition rate,"24 h, 10 µM; inhibitor",-0.1%
COC[C@]12CN(C)C3[C@@H]4[C@H](OC)[C@H]1[C@@]3([C@@H](OC)C[C@H]2O)[C@]1(O)C[C@@]2(O)[C@H](OC(=O)c3ccccc3)[C@@H]1[C@]4(OC(C)=O)[C@@H](O)[C@@H]2OC [Beiwutine],OC43 Inhibition rate,"24 h, 10 µM; inhibitor",2.9%
C[C@]12CC[C@H](O)C[C@@H]1CC[C@@H]1[C@@H]2CC[C@]2(C)C(=O)CC[C@@H]12 [Epiandrosterone],OC43 Inhibition rate,"24 h, 10 µM; inhibitor",-0.1%
C[C@]12CC[C@H](O)C[C@@]1(O)CC[C@@H]1[C@@H]2CC[C@]2(C)[C@@H](c3ccc(=O)oc3)[C@@H](O)[C@H]3O[C@]132 [Desacetylcinobufotalin],OC43 Inhibition rate,"24 h, 10 µM; inhibitor",6.4%
C[C@H]1CC[C@H]2[C@H](C)[C@@H]3CC[C@@H]4[C@@H](C[C@H]5[C@H]4C[C@@H](O)[C@H]4C[C@@H](O)CC[C@@]45C)[C@@H]3CN2C1 [Hupehenine],OC43 Inhibition rate,"24 h, 10 µM; inhibitor",-1.2%
COc1cc(CCN)ccc1O [3-Methoxytyramine (hydrochloride)],OC43 Inhibition rate,"24 h, 10 µM, inhibitor",-0.5%
"CC(=O)C(=O)c1ccccc1 [1-Phenylpropane-1,2-dione]",OC43 Inhibition rate,"24 h, 10 µM; inhibitor",5%
C=CCc1cc(OC)c2c(c1)OCO2 [Myristicin],OC43 Inhibition rate,"24 h, 10 µM; inhibitor",-0.6%
C=C1CC[C@H]2[C@@H](/C=C(\C)C(=O)[C@@]3(O)C[C@H](C)[C@H](O)[C@@H]3[C@@H]1O)C2(C)C [Lathyrol],OC43 Inhibition rate,"24 h, 10 µM; inhibitor",-0.3%
C=C(C)[C@@H]1[C@H]2OC(=O)[C@@H]1[C@]1(O)C[C@H]3O[C@]34C(=O)O[C@H]2[C@]14C [Picrotoxinin],OC43 Inhibition rate,"24 h, 10 µM; inhibitor",0.5
COCc1c(CO)cnc(C)c1O [4'-O-Methylpyridoxine],OC43 Inhibition rate,"24 h, 10 µM; inhibitor",-1.3%
CC(C)C[C@H](NP(=O)(O)O[C@@H]1O[C@@H](C)[C@H](O)[C@@H](O)[C@H]1O)C(=O)N[C@@H](Cc1c[nH]c2ccccc12)C(=O)O [Phosphoramidon (Disodium)],OC43 Inhibition rate,"24 h, 10 µM; inhibitor",1.6%
C=C[C@@]12CN(C)[C@H]3C[C@]14C(=Nc1ccccc14)[C@@H]1C[C@@H]2[C@@H]3CO1 [Koumine],OC43 Inhibition rate,"24 h, 10 µM; inhibitor",-0.3%
O=C(O)COc1ccccc1 [Phenoxyacetic acid],OC43 Inhibition rate,"24 h, 10 µM; inhibitor",0.6%
CCN1C[C@@]2(COC)[C@H]3[C@@H](OC)[C@H]4[C@@H]1[C@]3([C@@H](OC)C[C@H]2OC(C)=O)[C@@H]1C[C@@]2(O)[C@H](OC(=O)c3ccccc3)[C@@H]1[C@]4(OC(C)=O)[C@@H](O)[C@@H]2OC [Flaconitine],OC43 Inhibition rate,"24 h, 10 µM; inhibitor",0.4%
CC(=O)O[C@H]1[C@H]2O[C@]23[C@@H]2CC[C@@H]4C[C@@H](O)CC[C@]4(C)[C@H]2CC[C@]3(C)[C@H]1c1ccc(=O)oc1 [Cinobufagin],OC43 Inhibition rate,"24 h, 10 µM; inhibitor",3.3
C[C@]12CC[C@@H](O)C[C@@H]1CC[C@@H]1[C@@H]2[C@@H](O)C[C@]2(C)C(=O)CC[C@@H]12 [11β-Hydroxyandrosterone],OC43 Inhibition rate,"24 h, 10 µM; inhibitor",16.5%
CCN1C[C@]2(COC)[C@H](O)C[C@H](OC)[C@]34C1[C@H]([C@H](OC)[C@H]23)[C@@]1(OC(C)=O)C[C@H](OC)[C@@]2(O)C[C@@H]4[C@@H]1[C@H]2OC(=O)c1ccc(OC)cc1 [Yunaconitine],OC43 Inhibition rate,"24 h, 10 µM; inhibitor",0%
COc1ccc(C(=O)O[C@H]2CC[C@@]3(C)[C@@H]4CC[C@H]5[C@]6(O)C[C@H](O)[C@@]7(O)[C@@H](CN8C[C@@H](C)CC[C@H]8[C@@]7(C)O)[C@]6(O)C[C@@]53O[C@]24O)cc1OC [Veratridine],OC43 Inhibition rate,"24 h, 10 µM; inhibitor",2.4%
CC(C)=CCC[C@](C)(O)[C@H]1CC[C@]2(C)[C@@H]1[C@H](O)C[C@@H]1[C@@]3(C)CC[C@H](O)C(C)(C)[C@@H]3[C@@H](O[C@@H]3O[C@H](CO)[C@@H](O)[C@H](O)[C@H]3O)C[C@]12C [Ginsenoside Rh1],OC43 Inhibition rate,"24 h, 10 µM; inhibitor",0.5%
COc1ccc(C=O)cc1O [Isovanillin],OC43 Inhibition rate,"24 h, 10 µM; inhibitor",0.2%
O=c1cccc2n1CC1CC2CN2CCCCC12 (stereo not shown) [Thermopsine],OC43 Inhibition rate,"24 h, 10 µM; inhibitor",0.3%
CC(=O)/C=C/c1ccccc1 [trans-Benzylideneacetone],OC43 Inhibition rate,"24 h, 10 µM, inhibitor",0.1%
CN(C)NC(=O)CCC(=O)O [Daminozide],OC43 Inhibition rate,"24 h, 10 µM; inhibitor",3.1%
C/C=C(\C)C(=O)N[C@@H](c1ccccc1)[C@@H](O)C(=O)O[C@H]1C[C@@]2(O)[C@@H](OC(=O)c3ccccc3)[C@@H]3[C@]4(OC(C)=O)CO[C@@H]4C[C@H](O)[C@@]3(C)C(=O)[C@H](OC(C)=O)C(=C1C)C2(C)C [Cephalomannine],OC43 Inhibition rate,"24 h, 10 µM; inhibitor",-0.5%
CCN(CC)N=O [N-Nitrosodiethylamine],OC43 Inhibition rate,"24 h, 10 µM; inhibitor",-0.2%
C[C@@H](NC(=O)[C@@H](N)Cc1ccc(O)cc1)C(=O)N[C@@H](Cc1ccccc1)C(=O)NCC(=O)N[C@@H](Cc1ccc(O)cc1)C(=O)N1CCC[C@H]1C(=O)N[C@@H](CO)C(N)=O [Dermorphin],OC43 Inhibition rate,"24 h, 10 µM; inhibitor",-1.9
"CCC(=O)O[C@H]1[C@H](O[C@@H]2[C@@H](C)[C@H](O[C@H]3C[C@@](C)(OC)[C@@H](O)[C@H](C)O3)[C@@H](C)C(=O)O[C@H](CC)[C@@](C)(O)[C@H](O)[C@@H](C)C(=O)[C@H](C)C[C@@]2(C)O)O[C@H](C)C[C@@H]1N(C)C [Erythromycin estolate, erythromycin estolate]",OC43 Inhibition rate,"24 h post infection, 1 h compound pre-incubation; 10 µM; inhibitor",99.7%
C=C1[C@@H]2CC[C@H]3[C@]4(C)C[C@H](O[C@H]5O[C@H](CO)[C@@H](OS(=O)(=O)O)[C@H](OS(=O)(=O)O)[C@H]5OC(=O)CC(C)C)C[C@@H](C(=O)O)[C@H]4CC[C@]3(C2)[C@H]1O [Atractyloside (potassium salt)],OC43 Inhibition rate,"24 h, 10 µM; inhibitor",-0.1%
COc1cc2c3c(c1OC)-c1ccccc1C[C@H]3[N+](C)(C)CC2 [N-Methylnuciferine],OC43 Inhibition rate,"24 h, 10 µM; inhibitor",-4.6%

# 2 entries picked at random from the list so far, as already listed:
smiles,measurement,setting,value
CC(C)=CCC[C@](C)(O)[C@H]1CC[C@]2(C)[C@@H]1[C@H](O)C[C@@H]1[C@@]3(C)CC[C@H](O)C(C)(C)[C@@H]3[C@@H](O[C@@H]3O[C@H](CO)[C@@H](O)[C@H](O)[C@H]3O)C[C@]12C [Ginsenoside Rh1],OC43 Inhibition rate,"24 h, 10 µM; inhibitor",0.5%
CC(=O)/C=C/c1ccccc1 [trans-Benzylideneacetone],OC43 Inhibition rate,"24 h, 10 µM, inhibitor",0.1%
